Data published in article doi:10.1101/2025.05.15.654347.
Where two headings read alike, the source gives them in different places. No constants are given. Whether binding was seen depends on the method and setting. Binding seen in cells or lysates may run through a third protein. Some entries that bind do so weakly or less than the wild type. Sequences can lack the tags named with a protein.

Amino acid sequences for entries named in this document (tags omitted). Residues count along the entry.
UniProt P15208, residues 28-1372: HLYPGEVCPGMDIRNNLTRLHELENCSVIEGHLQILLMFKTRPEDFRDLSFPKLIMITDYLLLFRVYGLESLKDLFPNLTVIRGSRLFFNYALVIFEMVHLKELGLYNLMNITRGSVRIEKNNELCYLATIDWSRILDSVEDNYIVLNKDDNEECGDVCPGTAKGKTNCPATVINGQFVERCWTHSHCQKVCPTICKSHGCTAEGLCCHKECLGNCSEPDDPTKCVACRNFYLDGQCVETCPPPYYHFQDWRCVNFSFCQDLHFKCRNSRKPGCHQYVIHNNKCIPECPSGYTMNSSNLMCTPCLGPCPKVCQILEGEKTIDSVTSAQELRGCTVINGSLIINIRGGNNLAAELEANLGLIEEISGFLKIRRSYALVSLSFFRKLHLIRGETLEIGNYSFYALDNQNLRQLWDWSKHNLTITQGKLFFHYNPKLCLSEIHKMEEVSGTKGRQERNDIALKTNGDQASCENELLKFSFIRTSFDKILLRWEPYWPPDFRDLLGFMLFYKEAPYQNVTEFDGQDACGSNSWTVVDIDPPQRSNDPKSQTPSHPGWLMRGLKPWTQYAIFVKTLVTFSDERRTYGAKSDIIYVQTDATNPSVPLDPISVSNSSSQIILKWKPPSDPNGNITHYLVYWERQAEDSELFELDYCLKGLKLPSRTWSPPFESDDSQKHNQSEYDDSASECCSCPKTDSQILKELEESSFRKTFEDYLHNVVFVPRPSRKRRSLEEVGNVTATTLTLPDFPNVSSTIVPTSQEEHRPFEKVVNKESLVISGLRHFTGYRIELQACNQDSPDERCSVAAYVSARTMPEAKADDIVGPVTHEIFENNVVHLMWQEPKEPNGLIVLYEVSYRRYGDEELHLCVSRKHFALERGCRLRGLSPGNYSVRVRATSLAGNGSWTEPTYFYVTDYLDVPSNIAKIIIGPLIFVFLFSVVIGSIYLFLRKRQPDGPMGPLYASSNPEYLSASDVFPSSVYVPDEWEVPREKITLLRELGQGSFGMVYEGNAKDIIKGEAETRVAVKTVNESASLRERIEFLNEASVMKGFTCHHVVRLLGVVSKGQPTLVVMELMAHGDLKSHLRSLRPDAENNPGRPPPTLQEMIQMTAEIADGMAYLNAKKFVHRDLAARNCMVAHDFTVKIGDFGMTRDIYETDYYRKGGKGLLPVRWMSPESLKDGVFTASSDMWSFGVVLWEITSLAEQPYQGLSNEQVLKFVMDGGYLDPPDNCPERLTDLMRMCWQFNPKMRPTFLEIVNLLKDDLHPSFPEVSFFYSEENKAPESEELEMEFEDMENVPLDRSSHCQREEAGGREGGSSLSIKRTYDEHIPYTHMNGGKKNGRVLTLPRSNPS
UniProt Q60751, residues 31-1373: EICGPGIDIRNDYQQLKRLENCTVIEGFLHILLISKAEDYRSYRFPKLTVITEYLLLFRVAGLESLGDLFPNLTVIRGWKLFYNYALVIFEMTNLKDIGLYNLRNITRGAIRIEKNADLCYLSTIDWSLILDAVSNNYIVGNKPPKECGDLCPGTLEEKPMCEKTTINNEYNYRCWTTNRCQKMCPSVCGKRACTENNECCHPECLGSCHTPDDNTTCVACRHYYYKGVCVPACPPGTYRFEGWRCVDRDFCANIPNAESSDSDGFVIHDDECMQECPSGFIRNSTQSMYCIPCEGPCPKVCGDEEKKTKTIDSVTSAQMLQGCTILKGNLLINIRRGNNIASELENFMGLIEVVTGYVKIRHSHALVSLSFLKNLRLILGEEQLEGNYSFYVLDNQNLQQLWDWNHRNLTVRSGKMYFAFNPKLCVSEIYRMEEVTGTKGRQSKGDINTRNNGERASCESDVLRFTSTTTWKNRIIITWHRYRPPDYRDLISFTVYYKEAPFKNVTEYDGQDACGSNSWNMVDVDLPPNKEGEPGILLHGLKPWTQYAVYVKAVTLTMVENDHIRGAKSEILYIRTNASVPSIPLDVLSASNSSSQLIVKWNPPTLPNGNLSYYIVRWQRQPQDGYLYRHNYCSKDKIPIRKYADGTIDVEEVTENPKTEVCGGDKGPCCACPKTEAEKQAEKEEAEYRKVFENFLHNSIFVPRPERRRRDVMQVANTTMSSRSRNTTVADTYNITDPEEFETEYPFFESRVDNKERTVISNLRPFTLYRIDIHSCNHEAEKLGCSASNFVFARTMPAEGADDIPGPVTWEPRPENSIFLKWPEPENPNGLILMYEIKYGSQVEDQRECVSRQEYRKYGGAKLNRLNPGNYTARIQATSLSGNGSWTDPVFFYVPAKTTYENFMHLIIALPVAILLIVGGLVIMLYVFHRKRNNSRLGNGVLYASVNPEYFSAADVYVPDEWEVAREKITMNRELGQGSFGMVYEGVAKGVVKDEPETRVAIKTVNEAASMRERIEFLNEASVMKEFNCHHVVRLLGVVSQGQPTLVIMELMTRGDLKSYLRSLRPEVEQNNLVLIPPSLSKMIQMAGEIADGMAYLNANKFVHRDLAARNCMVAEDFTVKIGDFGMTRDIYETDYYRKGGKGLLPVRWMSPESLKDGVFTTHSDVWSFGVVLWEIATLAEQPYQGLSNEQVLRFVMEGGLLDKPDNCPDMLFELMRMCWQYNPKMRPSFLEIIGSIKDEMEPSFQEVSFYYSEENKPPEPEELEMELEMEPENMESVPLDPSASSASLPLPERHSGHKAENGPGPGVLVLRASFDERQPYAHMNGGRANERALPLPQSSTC

T1: endogenous BTBD9-3xFLAG (BTBD9::FLAG myoblasts) (mouse (endogenous in C2C12)) (UniProt Q8C726)
T1 sequence: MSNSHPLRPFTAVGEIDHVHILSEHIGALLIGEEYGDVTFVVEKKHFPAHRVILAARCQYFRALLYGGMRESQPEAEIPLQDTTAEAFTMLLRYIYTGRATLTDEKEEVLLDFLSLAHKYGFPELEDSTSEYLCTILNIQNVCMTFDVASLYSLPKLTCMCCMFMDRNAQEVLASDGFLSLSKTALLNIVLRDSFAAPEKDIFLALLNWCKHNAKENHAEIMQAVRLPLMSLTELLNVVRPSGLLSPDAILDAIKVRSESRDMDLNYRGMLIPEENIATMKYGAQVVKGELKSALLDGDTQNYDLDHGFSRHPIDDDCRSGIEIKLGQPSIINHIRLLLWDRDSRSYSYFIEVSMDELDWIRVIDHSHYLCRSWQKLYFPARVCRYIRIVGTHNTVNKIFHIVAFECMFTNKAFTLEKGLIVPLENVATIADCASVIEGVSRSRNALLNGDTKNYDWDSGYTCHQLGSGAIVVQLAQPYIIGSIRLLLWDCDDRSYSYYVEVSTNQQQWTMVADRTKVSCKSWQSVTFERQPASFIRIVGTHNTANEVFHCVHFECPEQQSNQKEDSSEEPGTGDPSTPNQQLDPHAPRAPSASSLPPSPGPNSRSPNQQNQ

T2: ^FLAGBTBD9 (wildtype), for small-scale immunoprecipitation (not stated (human or mouse cDNA cloned)) (UniProt Q96Q07)
T2 sequence: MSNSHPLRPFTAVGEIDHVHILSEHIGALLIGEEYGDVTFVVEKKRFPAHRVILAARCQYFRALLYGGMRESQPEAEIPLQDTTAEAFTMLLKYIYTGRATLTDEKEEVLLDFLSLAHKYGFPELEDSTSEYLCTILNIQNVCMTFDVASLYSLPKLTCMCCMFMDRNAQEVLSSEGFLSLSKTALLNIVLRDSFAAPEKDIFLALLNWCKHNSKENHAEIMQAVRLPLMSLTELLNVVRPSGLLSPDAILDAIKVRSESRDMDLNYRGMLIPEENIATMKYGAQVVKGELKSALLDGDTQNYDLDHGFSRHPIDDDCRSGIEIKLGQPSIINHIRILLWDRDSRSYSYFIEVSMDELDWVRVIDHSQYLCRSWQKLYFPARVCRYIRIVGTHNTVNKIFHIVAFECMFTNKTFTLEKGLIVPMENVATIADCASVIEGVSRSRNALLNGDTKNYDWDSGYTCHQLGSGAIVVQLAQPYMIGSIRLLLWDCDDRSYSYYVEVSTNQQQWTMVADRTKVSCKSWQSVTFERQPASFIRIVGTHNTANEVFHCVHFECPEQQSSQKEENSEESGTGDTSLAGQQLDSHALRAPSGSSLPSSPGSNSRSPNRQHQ

T3: ^FLAGBTBD9^ΔCUL3 (M69A/R70A/E71A), for small-scale immunoprecipitation (not stated (human or mouse cDNA cloned)) (UniProt Q96Q07)
T3 sequence: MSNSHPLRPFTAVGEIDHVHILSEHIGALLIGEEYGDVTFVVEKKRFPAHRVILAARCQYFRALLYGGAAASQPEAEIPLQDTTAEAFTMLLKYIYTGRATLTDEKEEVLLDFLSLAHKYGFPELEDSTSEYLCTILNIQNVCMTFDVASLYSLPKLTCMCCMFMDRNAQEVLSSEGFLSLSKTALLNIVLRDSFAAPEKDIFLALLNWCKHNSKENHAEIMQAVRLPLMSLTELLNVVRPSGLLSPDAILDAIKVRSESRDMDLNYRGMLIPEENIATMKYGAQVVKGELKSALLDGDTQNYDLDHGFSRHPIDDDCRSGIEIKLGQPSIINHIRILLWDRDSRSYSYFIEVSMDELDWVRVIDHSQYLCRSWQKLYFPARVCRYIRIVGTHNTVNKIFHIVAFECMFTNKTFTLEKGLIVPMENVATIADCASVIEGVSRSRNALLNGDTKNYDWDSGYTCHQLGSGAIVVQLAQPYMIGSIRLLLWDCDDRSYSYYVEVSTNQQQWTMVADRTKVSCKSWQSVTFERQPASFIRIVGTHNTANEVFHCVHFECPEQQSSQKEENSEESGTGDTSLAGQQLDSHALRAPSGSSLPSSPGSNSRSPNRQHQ


Key:
Assay in all cases: co-IP
[1] = target: T1, endogenous BTBD9-3xFLAG (BTBD9::FLAG myoblasts) (mouse (endogenous in C2C12))
[2] = target: T2, ^FLAGBTBD9 (wildtype), for small-scale immunoprecipitation (not stated (human or mouse cDNA cloned))
[3] = target: T3, ^FLAGBTBD9^ΔCUL3 (M69A/R70A/E71A), for small-scale immunoprecipitation (not stated (human or mouse cDNA cloned))
[4] = target: T2, ^FLAGBTBD9 (wildtype), for small-scale immunoprecipitation (not stated (human or mouse cDNA cloned)); remark: listed apart in the source
[5] = target: T1, endogenous BTBD9-3xFLAG (BTBD9::FLAG myoblasts) (mouse (endogenous in C2C12)); remark: listed apart in the source

| Molecule | binding [4] | binding [5] | also measured |
| --- | --- | --- | --- |
| insulin receptor (from UniProt P15208 28-1372) |  |  | binding [1]: binds |
| IGF1 receptor (from UniProt Q60751 31-1373) |  |  | binding [1]: binds |
| ^HACAV1 (from UniProt Q03135 1-178) |  |  | binding [2]: binds |
| endogenous CAV1 of C2C12 myoblasts (protein, UniProt P49817 1-178) MSGGKYVDSEGHLYTVPIREQGNIYKPNNKAMADEVTEKQVYDAHTKEIDLVNRDPKHLNDDVVKIDFEDVIAEPEGTHSFDGIWKASFTTFTVTKYWFYRLLSTIFGIPMALIWGIYFAILSFLHIWAVVPCIKSFLIEIQCISRVYSIYVHTFCDPLFEAIGKIFSNIRISTQKEI | binds | binds | binding [3]: binds |
| modified version of CAV1, with a molecular weight expected for monoubiquitylated CAV1 (protein, UniProt P49817 1-178, modified consistent with monoubiquitylation; site not stated) MSGGKYVDSEGHLYTVPIREQGNIYKPNNKAMADEVTEKQVYDAHTKEIDLVNRDPKHLNDDVVKIDFEDVIAEPEGTHSFDGIWKASFTTFTVTKYWFYRLLSTIFGIPMALIWGIYFAILSFLHIWAVVPCIKSFLIEIQCISRVYSIYVHTFCDPLFEAIGKIFSNIRISTQKEI | binds |  |  |
| ^HAKCTD10 (protein, UniProt Q9H3F6 1-313) MEEMSGESVVSSAVPAAATRTTSFKGTSPSSKYVKLNVGGALYYTTMQTLTKQDTMLKAMFSGRMEVLTDSEGWILIDRCGKHFGTILNYLRDGAVPLPESRREIEELLAEAKYYLVQGLVEECQAALQNKDTYEPFCKVPVITSSKEEQKLIATSNKPAVKLLYNRSNNKYSYTSNSDDNMLKNIELFDKLSLRFNGRVLFIKDVIGDEICCWSFYGQGRKIAEVCCTSIVYATEKKQTKVEFPEARIYEETLNILLYEAQDGRGPDNALLEATGGAAGRSHHLDEDEERERIERVRRIHIKRPDDRAHLHQ | binds |  |  |
| HA-tagged TNFAIP1 (protein, UniProt Q13829 1-316) MSGDTCLCPASGAKPKLSGFKGGGLGNKYVQLNVGGSLYYTTVRALTRHDTMLKAMFSGRMEVLTDKEGWILIDRCGKHFGTILNYLRDDTITLPQNRQEIKELMAEAKYYLIQGLVNMCQSALQDKKDSYQPVCNIPIITSLKEEERLIESSTKPVVKLLYNRSNNKYSYTSNSDDHLLKNIELFDKLSLRFNGRVLFIKDVIGDEICCWSFYGQGRKLAEVCCTSIVYATEKKQTKVEFPEARIYEETLNVLLYETPRVPDNSLLEATSRSRSQASPSEDEETFELRDRVRRIHVKRYSTYDDRQLGHQSTHRD | binds |  |  |
| KCTD10 co-precipitating with FLAG-tagged BTBD9 variants (Figure 3A) (protein, UniProt Q9H3F6 1-313) MEEMSGESVVSSAVPAAATRTTSFKGTSPSSKYVKLNVGGALYYTTMQTLTKQDTMLKAMFSGRMEVLTDSEGWILIDRCGKHFGTILNYLRDGAVPLPESRREIEELLAEAKYYLVQGLVEECQAALQNKDTYEPFCKVPVITSSKEEQKLIATSNKPAVKLLYNRSNNKYSYTSNSDDNMLKNIELFDKLSLRFNGRVLFIKDVIGDEICCWSFYGQGRKIAEVCCTSIVYATEKKQTKVEFPEARIYEETLNILLYEAQDGRGPDNALLEATGGAAGRSHHLDEDEERERIERVRRIHIKRPDDRAHLHQ | binds |  |  |
| endogenous KCTD10 of C2C12 myoblasts (protein, UniProt Q922M3 1-315) MEEMSGDSVVSSAVPAAATRTTSFKGASPSSKYVKLNVGGALYYTTMQTLTKQDTMLKAMFSGRMEVLTDSEGWILIDRCGKHFGTILNYLRDGGVPLPESRREIEELLAEAKYYLVQGLLEECQAALQNKDTYEPFCKVPVITSSKEEQRLIATSNKPAVKLLYNRSNNKYSYTSNSDDNMLKNIELFDKLSLRFNGRVLFIKDVIGDEICCWSFYGQGRKIAEVCCTSIVYATEKKQTKVEFPEARIYEETLNILLYEAQDGRGPDNALLEATGGAAGRSHHLDEDEERERERIERVRRIHIKRPDDRAHLHQ |  | binds |  |
| active PDK1, the kinase responsible for AKT activation (enzyme, UniProt Q9Z2A0 1-559, 'active' as printed; the modification that was detected is not stated) MARTTSQLYDAVPIQSSVVLCSCPSPSMVRSQTEPGSSPGIPSGVSRQGSTMDGTTAEARPSTNPLQQHPAQLPPQPRKKRPEDFKFGKILGEGSFSTVVLARELATSREYAIKILEKRHIIKENKVPYVTRERDVMSRLDHPFFVKLYFTFQDDEKLYFGLSYAKNGELLKYIRKIGSFDETCTRFYTAEIVSALEYLHGKGIIHRDLKPENILLNEDMHIQITDFGTAKVLSPESKQARANSFVGTAQYVSPELLTEKSACKSSDLWALGCIIYQLVAGLPPFRAGNEYLIFQKIIKLEYHFPEKFFPKARDLVEKLLVLDATKRLGCEEMEGYGPLKAHPFFETITWENLHQQTPPKLTAYLPAMSEDDEDCYGNYDNLLSQFGFMQVSSSSSSHSLSTVETSLPQRSGSNIEQYIHDLDTNSFELDLQFSEDEKRLLLEKQAGGNPWHQFVENNLILKMGPVDKRKGLFARRRQLLLTEGPHLYYVDPVNKVLKGEIPWSQELRPEAKNFKTFFVHTPNRTYYLMDPSGNAHKWCRKIQEVWRQQYQSNPDAAVQ |  | binds |  |
